# Data: PubChem BioAssay AID540275 (National Center for Advancing Translational Sciences (NCATS), 2011)
# Sequences of proteins named here, by UniProt entry; tags and fusion partners are left off.
# UniProt Q8NER1, whole entry, looked up: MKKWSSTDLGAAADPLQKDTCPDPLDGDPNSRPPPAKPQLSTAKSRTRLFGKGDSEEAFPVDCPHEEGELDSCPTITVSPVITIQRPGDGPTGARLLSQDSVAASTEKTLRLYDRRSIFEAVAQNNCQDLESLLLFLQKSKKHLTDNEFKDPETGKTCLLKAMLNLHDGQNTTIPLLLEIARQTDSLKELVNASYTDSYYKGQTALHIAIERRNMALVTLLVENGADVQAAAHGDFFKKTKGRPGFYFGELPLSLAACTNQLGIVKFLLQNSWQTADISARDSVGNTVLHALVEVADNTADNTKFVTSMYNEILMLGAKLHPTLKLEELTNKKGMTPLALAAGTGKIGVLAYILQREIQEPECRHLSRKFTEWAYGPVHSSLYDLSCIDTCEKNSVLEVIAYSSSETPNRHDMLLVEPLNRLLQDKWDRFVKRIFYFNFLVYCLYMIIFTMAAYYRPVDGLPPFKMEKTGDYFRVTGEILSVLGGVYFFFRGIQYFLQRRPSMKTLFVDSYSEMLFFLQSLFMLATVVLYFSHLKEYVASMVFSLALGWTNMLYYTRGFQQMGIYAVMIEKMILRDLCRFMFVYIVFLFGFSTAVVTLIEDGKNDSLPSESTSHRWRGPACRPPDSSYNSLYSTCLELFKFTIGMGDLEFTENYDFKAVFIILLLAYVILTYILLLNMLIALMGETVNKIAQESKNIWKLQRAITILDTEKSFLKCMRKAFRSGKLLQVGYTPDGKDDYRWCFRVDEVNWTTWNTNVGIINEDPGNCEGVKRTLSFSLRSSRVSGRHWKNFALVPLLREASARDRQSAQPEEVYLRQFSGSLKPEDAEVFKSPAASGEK
# Out of some 320,000 compounds screened, about 620 (0.19%) were called active. The shares of active, inactive and inconclusive entries below differ from those in the screen. Cut-off read from the data, not from the text of the source: active = activation above about 80%; inconclusive = between about 30% and that limit; inactive = weaker than that.
# Molecular target: Transient receptor potential cation channel subfamily V member 1 (Homo sapiens) (UniProt Q8NER1)
# Assay: HTS Assay for Compounds that Act as Agonists of the Vanilloid Receptor 1; note: 0% is about no effect
# Details: TRPV1-expressing cells, Fluo-8 calcium influx, agonist mode; at 8.33 µM, stronger effect = higher value
# Procedure, shortened: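 Fluo-8 calcium influx in TRPV1-expressing cells, kinetic read (ex 480/em 520 nm). Compound added and read 3 min for agonist activity, followed by capsaicin at EC20 final and 2 min further read for enhancement.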
row,Compound,activation
1,O=C(NCc1ccco1)C1CCN(c2nc3ccccc3n2Cc2ccccc2F)CC1,inactive: -0.665%
2,O=C(Nc1ccc(F)cc1F)c1cc(-c2ccco2)on1,inactive: -0.0395%
3,Cc1cc(Cl)ccc1OCCCC(=O)N1CCN(S(=O)(=O)c2ccccc2)CC1,inconclusive: 38.3%
4,CCCCCOC(=O)Cn1c(=O)oc2ccccc21,inconclusive: 59.4%
5,O=C(NCc1ccco1)/C(=C/c1ccc(C(F)(F)F)cc1)c1nc2ccccc2[nH]1,inconclusive: 59%
6,N#Cc1cc(-c2ccccc2)oc1NC(=O)c1ccccc1,inconclusive: 59.1%
7,O=C(c1ccc2c(c1)OCO2)N1CCN(c2ccccc2F)CC1,inconclusive: 37%
8,O=C(CC1SC(=Nc2ccccc2)N(Cc2ccccn2)C1=O)Nc1cccc(Cl)c1 (centres undefined),inconclusive: 39.4%
9,CCCNC(=S)Nc1ccc(Oc2ccccc2)cc1,inconclusive: 31.8%
10,NS(=O)(=O)c1ccc(NC(=O)CSC2CCCCC2)cc1,inconclusive: 41.5%
11,CCN(CC(=O)NCc1ccc(F)cc1)C(=O)/C=C/c1ccco1,inactive: -9.13%
12,O=C(N1CCCCC1)N1CCN(c2ccc(Cl)cc2)CC1,inconclusive: 61.4%
13,CN(CCC#N)C(=S)Nc1ccc(F)cc1,inactive: -7.06%
14,O=C(NNC(=O)c1ccc2ccccc2n1)c1ccc(O)cc1,inconclusive: 58.2%
15,Cc1ccc(SC[C@H](Cc2ccccc2)N2CC[C@@H](C)CCC2=O)cc1,inconclusive: 59.5%
16,Cc1ccc(-n2c(SCC(=O)NCc3ccco3)nnc2-c2cccnc2)c(C)c1,inconclusive: 42.9%
17,O=C(NCCC(c1ccccc1)c1ccccc1)c1cccs1,inconclusive: 60.3%
18,O=C(NC1CCSC1)c1cccc(Cl)c1 (centres undefined),inconclusive: 31%
19,CCC(C)(C)C1CCc2[nH]nc(C(=O)N/N=C(\C)c3ccco3)c2C1 (centres undefined),inconclusive: 46.4%
20,FC(F)(F)c1nnc2c(Sc3ccccc3)nc3ccccc3n12,inactive: 2.92%

# Among those listed so far, these contain a cyano group:
row,Compound,activation
6,N#Cc1cc(-c2ccccc2)oc1NC(=O)c1ccccc1,inconclusive: 59.1%
13,CN(CCC#N)C(=S)Nc1ccc(F)cc1,inactive: -7.06%

# Following part

row,Compound,activation
1,CN(Cc1cccs1)C(=O)COc1cccc(-n2cnnn2)c1,inactive: -2.75%
2,COc1cc(/C=C/C(=O)OCC(=O)NCCC2=CCCCC2)ccc1O,inconclusive: 47.5%
3,CN(c1cccc(NC(=O)c2ccc(Cl)c(S(=O)(=O)Nc3ccccc3)c2)c1)S(C)(=O)=O,inactive: 7.42%
4,COc1ccc(-c2nc(NC3=NCCCCC3)sc2C)cc1,inconclusive: 53%
5,COc1ccc(SC[C@H](Cc2ccccc2)N2CC[C@@H](C)CCC2=O)cc1,inconclusive: 57.3%
6,O=c1c2cnn(-c3ccccc3)c2ncn1Cc1ccccn1,inactive: -0.0804%
7,O=C(O)CC1S/C(=N/N=C2CCCCC2)N(c2ccccc2)C1=O (centres undefined),inactive: 2.89%
8,O=C(N/N=C/c1ccc(F)c(F)c1)c1cccc(S(=O)(=O)N2CCCCC2)c1,inconclusive: 39.9%
9,O=C(COc1ccc(C(=O)c2ccccc2)cc1)Nc1cccnc1,inconclusive: 54.6%
10,Cc1cccc(NC(=O)c2ccc(-n3cncn3)c([N+](=O)[O-])c2)c1,inconclusive: 40.9%
11,N#C/C(=C\c1ccc(-c2ccc(C(=O)O)cc2)o1)c1nc2ccccc2[nH]1,inconclusive: 32.5%
12,CCCCn1c(=O)c(CCC(=O)OCC(=O)NC(=O)NCCOC)nc2ccccc21,inactive: -3.5%
13,c1ccc(-c2ccc(-c3nccc4ccccc34)[nH]2)cc1,inactive: 15.8%
14,NS(=O)(=O)c1ccc(CCNC(=O)COC(=O)CCc2ccccc2)cc1,inactive: 0.193%
15,Cc1ccccc1NC(=O)Nc1cccs1,inactive: 18%
16,Cc1cccc(CN2CCN(C(=O)c3cccc4ccccc34)CC2)c1,inactive: 20.9%
17,Cc1cc(N)n2nc(-c3ccc(C(C)(C)C)cc3)cc2n1,inconclusive: 30.6%
18,COc1ccc(-c2cc(C(F)F)n3ncc(C(=O)Nc4c(C)n(C)n(-c5ccccc5)c4=O)c3n2)cc1,inactive: 0.485%
19,Cc1ccc(C)c(CN2C(=O)c3ccccc3Sc3ccc(C(=O)NCc4ccc5c(c4)OCO5)cc32)c1,inconclusive: 62%
20,COC(=O)CSc1nnc(-c2ccncc2)n1N,inactive: 1.75%

# Part of the list above, tab-delimited:
row	Compound	activation
12	O=C(N1CCCCC1)N1CCN(c2ccc(Cl)cc2)CC1	inconclusive: 61.4%
16	Cc1ccc(-n2c(SCC(=O)NCc3ccco3)nnc2-c2cccnc2)c(C)c1	inconclusive: 42.9%

# (continued)

row,Compound,activation
1,O=C(NC12CC3CC(CC(C3)C1)C2)c1ccc(-c2ccc(Cl)cc2)o1,inconclusive: 53.8%
2,CCc1cc2c(-c3ccccc3)cc(=O)oc2cc1OC(C)C(C)=O (centres undefined),inconclusive: 39.2%
3,O=C(N/N=C/c1ccccc1Br)c1cccc(S(=O)(=O)N2CCOCC2)c1,inconclusive: 39.1%
4,Cc1cc(C(=O)Cn2nnc3ccccc3c2=O)c(C)n1Cc1cccs1,inactive: 0.69%
5,O=C(COC(=O)Cc1ccc(Cl)cc1)NCc1ccc(F)cc1,inconclusive: 60.8%
6,Cc1c(OCc2ccccc2)c(=O)ccn1Cc1ccc(F)cc1,inconclusive: 46.3%
7,CCCNC(=O)N1CCC(c2ccc3c(c2)OCO3)CC1,inconclusive: 49.9%
8,Cc1cc(OCC(=O)N(C)C2CCCCC2)ccc1Cl,inconclusive: 31.2%
9,Cc1nc2c(-c3ccc(F)cc3)c(C)nn2c(C)c1CCC(=O)Nc1ccc(F)cc1F,inconclusive: 41.4%
10,CCCN(CC1CC1)c1nc(N)c2c(N)nc(OC)cc2c1C#N,inactive: 9%
11,c1ccc(-c2nc3nonc3c3nc4ccccc4n23)cc1,inactive: -1.16%
12,COC(=O)c1ccc(NC(=S)NCCc2ccc(OC)cc2)cc1,inconclusive: 55.4%
13,CCn1c(C)nnc1SCC(=O)Nc1ccc2c(c1)OCCO2,inactive: 1.31%
14,FC(F)(F)c1cc(CCN2CCNC[C@H]2Cc2cccc3ccccc23)cc(C(F)(F)F)c1,inactive: 10.2%
15,CC1CC(=O)N(C)c2cc([N+](=O)[O-])ccc2N1 (centres undefined),inactive: -11%
16,O=C(NC12CC3CC(CC(C3)C1)C2)N1CCN(c2ccccn2)CC1,inconclusive: 78.3%
17,COc1c(C(=O)NCCSC(C)(C)C)ccc2ccccc12,inconclusive: 35.3%
18,CCN(C(=O)CN1C(=O)c2ccc([N+](=O)[O-])cc2C1=O)C1CCCCC1,inconclusive: 74.1%
19,CC1CC(C)CN(C(=S)Nc2ccc(SC(F)F)cc2)C1 (centres undefined),inactive: 8.4%
